# Results reported in the supplement of paper PMC4604168 (melanoma cell lines).
# The other results are listed elsewhere or left out. Repeats are few or missing, and single values can be far off.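 The apoptosis fraction was the count of cleaved-PARP antibody-stained nuclei relative to all DNA-stained nuclei, imaged in 1,536-well plates. Screening doses were set so most cells survived, and baseline and induced cleaved-PARP levels vary greatly across cell lines.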
# Assays:
# Experiment in all cases: cleaved PARP positive nuclei fraction relative to DMSO control; melanoma cells; higher = more apoptosis
# Settings in all cases: library dose: low library concentration; 72 h
# MZ2-MEL = tested on: MZ2-MEL
# MeWo = tested on: MeWo
# RPMI7951 = tested on: RPMI7951
# RVH-421 = tested on: RVH-421
# SkMel28 = tested on: SkMel28
# SkMel30 = tested on: SkMel30
# UACC62 = tested on: UACC62
# WM115 = tested on: WM115
# WM1716 = tested on: WM1716
# WM1745 = tested on: WM1745
# WM3526 = tested on: WM3526
# WM3619 = tested on: WM3619
# WM451Lu = tested on: WM451Lu
# SkMel2 = tested on: SkMel2
# SkMel5 = tested on: SkMel5
# UACC257 = tested on: UACC257
Compound,cleaved PARP positive nuclei fraction (MZ2-MEL) [%],cleaved PARP positive nuclei fraction (MeWo) [%],cleaved PARP positive nuclei fraction (RPMI7951) [%],cleaved PARP positive nuclei fraction (RVH-421) [%],cleaved PARP positive nuclei fraction (SkMel28) [%],cleaved PARP positive nuclei fraction (SkMel30) [%],cleaved PARP positive nuclei fraction (UACC62) [%],cleaved PARP positive nuclei fraction (WM115) [%],cleaved PARP positive nuclei fraction (WM1716) [%],cleaved PARP positive nuclei fraction (WM1745) [%],cleaved PARP positive nuclei fraction (WM3526) [%],cleaved PARP positive nuclei fraction (WM3619) [%],cleaved PARP positive nuclei fraction (WM451Lu) [%],cleaved PARP positive nuclei fraction (SkMel2) [%],cleaved PARP positive nuclei fraction (SkMel5) [%],cleaved PARP positive nuclei fraction (UACC257) [%]
"CC1(C)CCC(c2ccc(Cl)cc2)=C(CN2CCN(c3ccc(C(=O)NS(=O)(=O)c4ccc(N[C@H](CCN5CCOCC5)CSc5ccccc5)c(S(=O)(=O)C(F)(F)F)c4)cc3)CC2)C1 + CS(=O)(=O)CCNCc1ccc(-c2ccc3ncnc(Nc4ccc(OCc5cccc(F)c5)c(Cl)c4)c3c2)o1 [lapatinib] (first compound 0.4 µM, partner dose 0.8 µM)",256,557,178,112,84.2,446,77.9,390,145,812,48.7,104,50.3,–,–,–
"CCCCCCCCc1ccc(CCC(N)(CO)CO)cc1 [fingolimod] + COc1ccc(COc2ccc(Cc3cnc(N)nc3N)cc2OC)cc1 [GW2580] (first compound 2 µM, partner dose 1 µM)",–,16.7,87.5,133,166,175,79.5,81.5,130,99.6,83.6,94.4,55.4,47.7,36.6,165
"CCCCCCCCc1ccc(CCC(N)(CO)CO)cc1 [fingolimod] + Cn1c(Nc2ccc(C(F)(F)F)cc2)nc2cc(Oc3ccnc(-c4ncc(C(F)(F)F)[nH]4)c3)ccc21 [CHIR265] (first compound 2 µM, partner dose 0.08 µM)",65,248,353,305,68.8,112,739,511,218,132,180,162,84.7,–,–,–
"CN(c1ncccc1CNc1nc(Nc2ccc3c(c2)CC(=O)N3)ncc1C(F)(F)F)S(C)(=O)=O + Cc1nc(Nc2ncc(C(=O)Nc3c(C)cccc3Cl)s2)cc(N2CCN(CCO)CC2)n1 [dasatanib] (first compound 0.08 µM, partner dose 0.004 µM)",231,100,230,327,57.2,82.6,203,62.4,42.1,162,75.8,100,148,–,–,–
"CCN(CC)CCNC(=O)c1c(C)[nH]c(/C=C2\C(=O)Nc3ccc(F)cc32)c1C [sunitinib] + CO[C@H]1C[C@@H]2CC[C@@H](C)[C@@](O)(O2)C(=O)C(=O)N2CCCC[C@H]2C(=O)O[C@H]([C@H](C)C[C@@H]2CC[C@@H](OCCO)[C@H](OC)C2)CC(=O)[C@H](C)/C=C(\C)[C@@H](O)[C@@H](OC)C(=O)[C@H](C)C[C@H](C)/C=C/C=C/C=C/1C [everolimus] (first compound 0.4 µM, partner dose 0.02 µM)",131,173,105,214,371,104,481,100,80.2,126,65.2,132,71.5,–,–,–
"Cn1cnc2c(F)c(Nc3ccc(Br)cc3Cl)c(C(=O)NOCCO)cc21 [selumetinib] + CO[C@H]1C[C@@H]2CC[C@@H](C)[C@@](O)(O2)C(=O)C(=O)N2CCCC[C@H]2C(=O)O[C@H]([C@H](C)C[C@@H]2CC[C@@H](OCCO)[C@H](OC)C2)CC(=O)[C@H](C)/C=C(\C)[C@@H](O)[C@@H](OC)C(=O)[C@H](C)C[C@H](C)/C=C/C=C/C=C/1C [everolimus] (first compound 0.015 µM, partner dose 0.02 µM)",173,302,139,134,470,227,1470,646,104,123,138,140,106,–,–,–
"CCCCCCCCc1ccc(CCC(N)(CO)CO)cc1 [fingolimod] + CC(=O)c1c(C)c2cnc(Nc3ccc(N4CCNCC4)cn3)nc2n(C2CCCC2)c1=O [palbociclib] (first compound 2 µM, partner dose 0.04 µM)",76.4,91.6,167,26.5,52.9,93.2,97,127,104,111,227,126,332,–,–,–
"COc1ccc(C2=N[C@@H](c3ccc(Cl)cc3)[C@@H](c3ccc(Cl)cc3)N2C(=O)N2CCNC(=O)C2)c(OC(C)C)c1 [Nutlin-3] + CO[C@H]1C[C@@H]2CC[C@@H](C)[C@@](O)(O2)C(=O)C(=O)N2CCCC[C@H]2C(=O)O[C@H]([C@H](C)C[C@@H]2CC[C@@H](OCCO)[C@H](OC)C2)CC(=O)[C@H](C)/C=C(\C)[C@@H](O)[C@@H](OC)C(=O)[C@H](C)C[C@H](C)/C=C/C=C/C=C/1C [everolimus] (first compound 0.1 µM, partner dose 0.02 µM)",25.4,82.9,87.8,108,150,72.6,390,169,88.1,121,48.7,154,146,–,–,–
"CCCCCCCCc1ccc(CCC(N)(CO)CO)cc1 [fingolimod] + CC(C)(C)c1cnc(CSc2cnc(NC(=O)C3CCNCC3)s2)o1 [SNS-032] (first compound 2 µM, partner dose 0.01 µM)",–,102,97.7,325,201,66.4,342,178,74.1,102,114,93.8,105,148,77.6,49
"COc1ccc(C2=N[C@@H](c3ccc(Cl)cc3)[C@@H](c3ccc(Cl)cc3)N2C(=O)N2CCNC(=O)C2)c(OC(C)C)c1 [Nutlin-3] + CCCCCCCCCCCC1=C(O)C(=O)C=C(O)C1=O [Embelin] (first compound 0.1 µM, partner dose 1.2 µM)",–,145,87.8,134,154,61.1,87.1,140,71.6,81.8,68.6,75,111,103,106,172
"NC(=O)c1ccc(N(C(N)=O)c2c(F)cccc2F)nc1-c1ccc(F)cc1F + Oc1nc(-c2ccc(C(F)(F)F)cc2)nc2c1CSCC2 [XAV939] (first compound 0.4 µM, partner dose 2 µM)",–,81.9,38.2,82,239,207,121,165,73,101,295,93.3,78.6,111,80.6,161
"COc1ccc(C2=N[C@@H](c3ccc(Cl)cc3)[C@@H](c3ccc(Cl)cc3)N2C(=O)N2CCNC(=O)C2)c(OC(C)C)c1 [Nutlin-3] + COCC[n+]1c2c(n(Cc3cnccn3)c1C)C(=O)c1ccccc1C2=O [YM155] (first compound 0.1 µM, partner dose 0.0004 µM)",63.2,84,48.8,118,33.6,94.1,142,89,73.8,100,41.4,94.5,223,–,–,–
"CCCCCCCCc1ccc(CCC(N)(CO)CO)cc1 [fingolimod] + Cc1ccc(NC(=O)c2cccc(N(C)C)c2)cc1NC(=O)c1ccc(O)cc1 [ZM336372] (first compound 2 µM, partner dose 2 µM)",–,53.3,123,45.4,69.4,74,262,139,65.9,125,68,98.5,370,59.8,78.9,127
"CC(=O)O[C@@]12CO[C@@H]1C[C@H](O)[C@@]1(C)C(=O)[C@H](O)C3=C(C)[C@@H](OC(=O)[C@H](O)[C@@H](NC(=O)OC(C)(C)C)c4ccccc4)C[C@@](O)([C@@H](OC(=O)c4ccccc4)[C@H]21)C3(C)C [Docetaxel] + COc1cc2ncnc(Nc3ccc(Oc4ccccc4)cc3)c2cc1OC [SrcI1] (first compound 0.0001 µM, partner dose 2 µM)",–,428,124,142,1010,372,343,717,424,205,169,113,116,880,109,271
"C[C@]1(O)C[C@@H](c2nc(-c3ccc4ccc(-c5ccccc5)nc4c3)c3c(N)nccn32)C1 + C[C@@H]1CCN(C(=O)CC#N)C[C@@H]1N(C)c1ncnc2[nH]ccc12 [CP690550] (first compound 0.4 µM, partner dose 1 µM)",–,49,75.4,47.5,55.4,157,155,64.7,74.7,81.7,71,92.7,82,177,135,80.9
"CCCCCCCCc1ccc(CCC(N)(CO)CO)cc1 [fingolimod] + O=C(CCCCCCC(=O)Nc1ccccc1)NO [vorinostat] (first compound 2 µM, partner dose 0.08 µM)",–,46.4,243,41.5,71.2,70.6,36.3,98.8,158,101,56.8,136,109,48.5,154,68.3
"Cn1cnc2c(F)c(Nc3ccc(Br)cc3Cl)c(C(=O)NOCCO)cc21 [selumetinib] + Cc1cc([N+](=O)[O-])ccc1NS(=O)(=O)c1cc(Cl)ccc1Cl [FH535] (first compound 0.015 µM, partner dose 1 µM)",–,128,63.7,103,127,166,299,183,64,99.6,94.2,109,122,216,64,39.3
"C[C@]1(O)C[C@@H](c2nc(-c3ccc4ccc(-c5ccccc5)nc4c3)c3c(N)nccn32)C1 + CCCCCCCCc1ccc(CCC(N)(CO)CO)cc1 [fingolimod] (first compound 0.4 µM, partner dose 2 µM)",57.4,108,232,88.4,49.2,42.3,319,133,93.6,144,218,79.8,44.9,–,–,–

# Copied from the list:
# For cleaved PARP positive nuclei fraction (WM3526) [%], CCCCCCCCc1ccc(CCC(N)(CO)CO)cc1 [fingolimod] + Cn1c(Nc2ccc(C(F)(F)F)cc2)nc2cc(Oc3ccnc(-c4ncc(C(F)(F)F)[nH]4)c3)ccc21 [CHIR265] (first compound 2 µM, partner dose 0.08 µM) is listed with 180
# For cleaved PARP positive nuclei fraction (SkMel30) [%], Cn1cnc2c(F)c(Nc3ccc(Br)cc3Cl)c(C(=O)NOCCO)cc21 [selumetinib] + CO[C@H]1C[C@@H]2CC[C@@H](C)[C@@](O)(O2)C(=O)C(=O)N2CCCC[C@H]2C(=O)O[C@H]([C@H](C)C[C@@H]2CC[C@@H](OCCO)[C@H](OC)C2)CC(=O)[C@H](C)/C=C(\C)[C@@H](O)[C@@H](OC)C(=O)[C@H](C)C[C@H](C)/C=C/C=C/C=C/1C [everolimus] (first compound 0.015 µM, partner dose 0.02 µM) is listed with 227
